# The list is a part of this screen's results and no random one: it is rich in T/C values a quarter to a half above the control, in often repeated tests (any T/C) and in doses without a T/C. Other doses and runs of a compound stand elsewhere. T/C gives the treated animals as a percentage of the vehicle group. Some entries give survivors of the animals treated and no T/C: the source holds a T/C of zero for them, seemingly a mark for toxic or unscored doses. Some doses without a T/C left all or most animals alive at the check, yet need not have been tolerated: the source hardly ever lists a survival T/C far under the control, and the zero likely stands for such cases as well. Survivors were counted at the toxicity check, usually on the fifth day, unless a day is given; later deaths do not show. Schedules are NCI's codes, taken here to give the interval after Q, in days (D) or hours (H), and the number of doses after X. Some entries hold several experiments; the results are listed from low to high. Where survival is the endpoint, the PubChem record calls one and a half times the control and up active, and a quarter to a half above the control has no call in these data; cut-offs in other NCI protocols can differ. Some T/C values are followed by the survivors on the day toxicity was checked, most often the fifth; where none is given, no animal had died by that day.
# Test system: BDF1 mice, B16 melanoma ip, median survival T/C
# Assay: NCI In Vivo Anticancer Drug Screen. Data for tumor model B16 Melanoma (intraperitoneal) in B6D2F1 (BDF1) mice
# Settings: T/C endpoint: median survival time, higher T/C = longer survival
# Method in brief: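 Compounds were tested in mice carrying transplantable tumors. Survival or tumor size was recorded, and each value is the treated-group measurement (T) divided by that of the vehicle-treated control group (C).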
# [1] = dose: 400.0 mg/kg/injection, schedule: Q01DX009 (ip), vehicle: saline with Tween-80
# [2] = dose: 400.0 mg/kg/injection, schedule: Q01DX009 (ip), vehicle: Klucel (hydroxypropylcellulose) (HPC)
# [3] = dose: 100.0 mg/kg/injection, schedule: Q01DX009 (ip), vehicle: Klucel (hydroxypropylcellulose) (HPC)
# [4] = dose: 50.0 mg/kg/injection, schedule: Q01DX009 (ip), vehicle: saline with Tween-80
# [5] = dose: 100.0 mg/kg/injection, schedule: Q01DX009 (ip), vehicle: saline with Tween-80
# [6] = dose: 6.25 mg/kg/injection, schedule: Q01DX009 (ip), vehicle: Klucel (hydroxypropylcellulose) (HPC)
# [7] = dose: 50.0 mg/kg/injection, schedule: Q01DX009 (ip), vehicle: Klucel (hydroxypropylcellulose) (HPC)
# [8] = dose: 200.0 mg/kg/injection, schedule: Q01DX009 (ip), vehicle: Klucel (hydroxypropylcellulose) (HPC)
# [9] = dose: 200.0 mg/kg/injection, schedule: Q01DX009 (ip), vehicle: saline
# [10] = dose: 100.0 mg/kg/injection, schedule: Q01DX009 (ip), vehicle: saline
# [11] = dose: 200.0 mg/kg/injection, schedule: Q01DX009 (ip), vehicle: saline with Tween-80
# [12] = dose: 25.0 mg/kg/injection, schedule: Q01DX009 (ip), vehicle: saline
# [13] = dose: 12.5 mg/kg/injection, schedule: Q01DX009 (ip), vehicle: saline with Tween-80
# [14] = dose: 50.0 mg/kg/injection, schedule: Q01DX009 (ip), vehicle: saline
# [15] = dose: 400.0 mg/kg/injection, schedule: Q01DX009 (ip), vehicle: saline
# [16] = dose: 12.5 mg/kg/injection, schedule: Q01DX009 (ip), vehicle: saline
structure (smiles),measurement,setting,value
O=C(NO)c1ccncc1,survivor count,"dose: 400.0 mg/kg/injection, schedule: Q01DX009 (ip), vehicle: water",6 of 6
same,T/C,"dose: 500.0 mg/kg/injection, schedule: Q01DX009 (ip), vehicle: water",126 % of control
same,survivor count,"dose: 800.0 mg/kg/injection, schedule: Q01DX009 (ip), vehicle: water",6 of 6
same,survivor count,"dose: 1000.0 mg/kg/injection, schedule: Q01DX009 (ip), vehicle: water",0 of 6
O=NN(CCCl)C(=O)NC1c2cc(Cl)ccc2-c2c(Cl)cc(Cl)cc21 (centres undefined),survivor count,[1],6 of 6
O=C(O)c1ccc2c(c1)C(=O)c1ccccc1S2(=O)=O,survivor count,[2],0 of 10
CSc1ncnc2c1ncn2C1OC(CO)C(O)C1O (centres undefined),survivor count,"dose: 30.0 mg/kg/injection, schedule: Q01DX009 (ip), vehicle: saline with Tween-80",6 of 6
same,survivor count,"dose: 60.0 mg/kg/injection, schedule: Q01DX009 (ip), vehicle: saline with Tween-80",6 of 6
CN(C)c1nc(N)nc(Nc2ccc(Br)cc2)c1N=O,T/C,[3],135 % of control
same,survivor count,[2],5 of 10
O=C(O)/C(Cl)=C(/Cl)C(Cl)=C(Cl)Cl,survivor count,[4],10 of 10
same,survivor count,[5],10 of 10
NNC(=S)N/N=C/c1ccc([N+](=O)[O-])s1,survivor count,[6],10 of 10
same,survivor count,"dose: 12.5 mg/kg/injection, schedule: Q01DX009 (ip), vehicle: Klucel (hydroxypropylcellulose) (HPC)",10 of 10
same,survivor count,[7],10 of 10
same,survivor count,[8],10 of 10
same,survivor count,[2],10 of 10
Oc1c(CNCCCN2CCCC2)cc(Cl)c2cccnc12,survivor count,[9],0 of 10 and 3 of 10
COc1cccc2c1C(=O)c1c(O)c3c(c(O)c1C2=O)C[C@@](O)(C(C)=O)C[C@@H]3OC1CC(NC(C)=O)C(O)C(C)O1 (some centres undefined),T/C,"dose: 3.13 mg/kg/injection, schedule: Q01DX009 (ip), vehicle: saline",129 % of control
same,survivor count,[10],9 of 10
COC(=O)C1CC(C)(C)N(C)C1(C)C (centres undefined),survivor count,[8],5 of 10
Oc1ccc(Nc2c3ccccc3nc3c2ccc2ccccc23)cc1CN(CCCl)CCCl,T/C,"dose: 1.7 mg/kg/injection, schedule: Q01DX009 (ip), vehicle: saline",137 % of control
same,T/C,"dose: 2.7 mg/kg/injection, schedule: Q01DX009 (ip), vehicle: saline",132 % of control [9 of 10 alive]
same,survivor count,"dose: 4.0 mg/kg/injection, schedule: Q01DX009 (ip), vehicle: saline",10 of 10
CCCCCC/C=C\C(=O)O,survivor count,[5],10 of 10
same,survivor count,[11],2 of 10
CC(=O)OC1CCC(C(C)(C)C)CC1 (centres undefined),survivor count,[11],10 of 10
CC(C)[C@]12O[C@H]1[C@@H]1O[C@]13[C@]1(O[C@H]1C[C@H]1C4=C(C(=O)OC4)[C@@H](O)C[C@@]13C)[C@@H]2O,T/C,"dose: 200.0 micrograms/kg/injection, schedule: Q01DX009 (ip), vehicle: saline + alcohol",130 % of control
same,survivor count,"dose: 400.0 micrograms/kg/injection, schedule: Q01DX009 (ip), vehicle: saline + alcohol",10 of 10
same,survivor count,"dose: 500.0 micrograms/kg/injection, schedule: Q01DX009 (ip), vehicle: saline + alcohol",0 of 10
CCOc1ccc(-c2nc3ccc(-c4nc5ccc(N6CCN(C)CC6)cc5[nH]4)cc3[nH]2)cc1,survivor count,[12],10 of 10
COc1ccc2c3c(c4cc(OC)c(OC)cc4c2c1)C[C@H]1CCCCN1C3,survivor count,"dose: 1.0 mg/kg/injection, schedule: Q01DX009 (ip), vehicle: saline",6 of 6
CCC1(c2ccccc2)SC(=O)NC1=O (centres undefined),survivor count,[11],8 of 10
same,survivor count,[1],5 of 10
COc1ccc(CCNC(C)=O)cc1OC,survivor count,[3],10 of 10
same,survivor count,[8],9 of 10
CC1(S)CCC2CC1C2(C)C (centres undefined),survivor count,[7],10 of 10
same,survivor count,[3],6 of 6
same,survivor count,[8],5 of 6
CSc1ccc(NC(=O)CCl)cc1,survivor count,[5],10 of 10
OC(CCN1CCCCC1)(c1ccccc1)C1CCCC1 (centres undefined),survivor count,[6],9 of 10
same,survivor count,[3],8 of 10
Cc1ccc(Cl)cc1NC(=O)c1ccc(Cl)cc1Cl,survivor count,"dose: 400.0 mg/kg/injection, schedule: Q04DX003 (ip), vehicle: Klucel (hydroxypropylcellulose) (HPC)",10 of 10
CCN(CC)c1nc(N(CC)CC)nc(N(CC)CC)n1,survivor count,[5],10 of 10
same,survivor count,[11],10 of 10
same,survivor count,[1],2 of 10
O=C(C=C(C(F)(F)F)C(F)(F)F)c1cccc(S(=O)(=O)F)c1,T/C,"dose: 3.13 mg/kg/injection, schedule: Q04DX003 (ip), vehicle: saline",130 % of control
same,T/C,"dose: 6.25 mg/kg/injection, schedule: Q04DX003 (ip), vehicle: saline",128 % of control
same,survivor count,[13],10 of 10
same,T/C,"dose: 12.5 mg/kg/injection, schedule: Q04DX003 (ip), vehicle: saline",141 % of control
O=[N+]([O-])c1ccc2c(N=Nc3c(O)ccc4ccccc34)c(O)cc(S(=O)(=O)O)c2c1,survivor count,[1],10 of 10
CCC1(C)c2cc(C)c(C(C)=O)cc2C(C)(C)C1C (centres undefined),survivor count,[5],10 of 10
CN1CCN(CCCN2c3ccccc3Sc3ccc(C(F)(F)F)cc32)CC1,survivor count,"dose: 1.56 mg/kg/injection, schedule: Q01DX009 (ip), vehicle: saline",10 of 10
same,survivor count,[12],10 of 10
same,survivor count,[14],3 of 10
same,survivor count,[10],0 of 10
same,survivor count,[9],0 of 10
same,survivor count,[15],0 of 10
Cc1ccc(N=Nc2c(O)ccc3n[nH]nc23)cc1,survivor count,[8],10 of 10
same,survivor count,[2],8 of 10
O=C(Nc1cccc(C(F)(F)F)c1)Nc1nccs1,survivor count,[2],2 of 10
Nc1ncnc2c1c1c(N)[nH]nc1n2C1OC(CO)C(O)C1O (centres undefined),survivor count,[9],5 of 6
C1CCC(C2OCCO2)CC1,survivor count,[15],10 of 10
COc1cc([N+](=O)[O-])c2ncccc2c1,survivor count,[2],6 of 6
ClCC[N+]12CC[N+](CCCl)(CC1)C2,T/C,"dose: 25.0 mg/kg/injection, schedule: Q01DX009 (ip), vehicle: saline with Tween-80",136 % of control [9 of 10 alive]
same,T/C,[5],146 % of control
same,T/C,[10],139 % of control
same,survivor count,[11],9 of 10 and 10 of 10
same,survivor count,[9],10 of 10
same,survivor count,[1],4 of 10
CN1C2C=C(c3ccccc3)C(Br)C1CC2 (centres undefined),survivor count,"dose: 80.0 mg/kg/injection, schedule: Q01DX009 (ip), vehicle: saline with Tween-80",10 of 10
c1ccc2c(c1)ccc1c[n+]3ccccc3cc12,survivor count,"dose: 2.0 mg/kg/injection, schedule: Q01DX009 (ip), vehicle: saline",6 of 6
C=C(C)[C@@H]1CC[C@@H]2C(=CC[C@]3(C)C([C@H](C)CC/C=C(/C)C(=O)O)CC[C@@]23C)[C@@]1(C)CCC(=O)O (some centres undefined),survivor count,"dose: 90.0 mg/kg/injection, schedule: Q01DX009 (ip), vehicle: saline + alcohol",10 of 10
Cc1nccc(=O)[nH]1,survivor count,[15],0 of 10
same,survivor count,"dose: 400.0 mg/kg/injection, schedule: Q04DX003 (ip), vehicle: saline",5 of 10
Cn1c2c(c3ccccc3c1=O)C(=O)c1ccccc1-2,survivor count,[13],10 of 10
same,survivor count,[4],10 of 10
same,survivor count,[5],10 of 10
same,survivor count,[11],10 of 10
same,survivor count,[1],9 of 10
O=C1Nc2ccc(Cl)cc2C(c2ccccc2)=NC1O (centres undefined),T/C,"dose: 3.12 mg/kg/injection, schedule: Q01DX009 (ip), vehicle: saline",125 % of control
same,T/C,[16],127 % of control
same,T/C,"dose: 25.0 mg/kg/injection, schedule: Q01DX009 (ip), vehicle: saline, evaluated on day 30",131 % of control
same,T/C,"dose: 25.0 mg/kg/injection, schedule: Q01DX009 (ip), vehicle: saline, evaluated on day 60",125 % of control
same,T/C,[14],125 % of control
C/C(=C\c1ccc(C)cc1)[N+](=O)[O-],survivor count,[5],9 of 10
same,survivor count,[11],0 of 10
CCCC[P+](c1ccccc1)(c1ccccc1)c1ccccc1,survivor count,[16],6 of 6
same,survivor count,[14],6 of 6

# Source: PubChem BioAssay AID192 (DTP/NCI, 2004)
